Drawing on PMC11844276, this text covers binding for two substances.

By UniProt entry, the sequences of proteins in these tests, tags left out.
UniProt Q9JHS3: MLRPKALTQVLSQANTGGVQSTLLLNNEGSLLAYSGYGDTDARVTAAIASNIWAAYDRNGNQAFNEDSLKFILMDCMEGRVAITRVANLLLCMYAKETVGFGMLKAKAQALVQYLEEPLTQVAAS
UniProt Q8K019: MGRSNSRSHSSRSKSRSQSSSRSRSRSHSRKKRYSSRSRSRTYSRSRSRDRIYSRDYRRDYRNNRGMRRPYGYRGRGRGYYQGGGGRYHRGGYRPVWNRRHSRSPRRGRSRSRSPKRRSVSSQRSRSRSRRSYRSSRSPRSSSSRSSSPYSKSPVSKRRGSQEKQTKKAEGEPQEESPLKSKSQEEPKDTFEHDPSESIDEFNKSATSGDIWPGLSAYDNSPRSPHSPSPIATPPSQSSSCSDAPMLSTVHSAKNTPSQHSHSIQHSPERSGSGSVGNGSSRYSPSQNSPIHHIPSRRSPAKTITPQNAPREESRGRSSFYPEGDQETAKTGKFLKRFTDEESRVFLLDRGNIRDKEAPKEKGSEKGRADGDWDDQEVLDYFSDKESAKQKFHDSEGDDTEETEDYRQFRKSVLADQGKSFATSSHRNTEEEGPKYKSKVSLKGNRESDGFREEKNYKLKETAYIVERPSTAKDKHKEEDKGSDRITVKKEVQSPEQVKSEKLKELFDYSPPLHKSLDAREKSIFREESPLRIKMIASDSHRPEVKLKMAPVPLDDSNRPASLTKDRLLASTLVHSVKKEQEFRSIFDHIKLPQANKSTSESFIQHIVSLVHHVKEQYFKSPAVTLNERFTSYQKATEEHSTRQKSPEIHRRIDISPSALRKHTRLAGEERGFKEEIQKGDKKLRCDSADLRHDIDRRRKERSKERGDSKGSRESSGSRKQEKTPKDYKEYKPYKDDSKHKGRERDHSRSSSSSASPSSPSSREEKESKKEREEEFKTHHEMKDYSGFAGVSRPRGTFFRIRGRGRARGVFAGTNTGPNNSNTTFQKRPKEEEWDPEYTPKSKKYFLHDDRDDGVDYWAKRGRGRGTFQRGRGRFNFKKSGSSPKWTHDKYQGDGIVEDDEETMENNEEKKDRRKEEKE

For assay [1], the target named is Ragulator complex protein LAMTOR2, Flag-tagged (UniProt Q9JHS3). As to the kind of experiment: condition: only chondrocytes treated with IL-1β (5 ng/mL) for 48 h; co-IP; as a2, but chondrocytes treated with IL-1β (5 ng/mL) for 48 h before lysis.
Assay [2] has the same target. As to the kind of experiment: co-IP; mouse primary chondrocytes transfected with Bclaf1-Flag or Lamtor2-Flag plasmid, without IL-1β; NP-40 lysate; protein A/G magnetic beads with the indicated antibodies, overnight at 4 °C, 4 washes; western blotting. On the technique in general: A western blot detects proteins with antibodies after separation by electrophoresis.
Assay [3] addresses B-cell lymphoma-2-associated transcription factor 1 (BCLAF1), Flag-tagged (UniProt Q8K019). As to the kind of experiment: condition: only chondrocytes treated with IL-1β (5 ng/mL) for 48 h; co-IP; as a2, but chondrocytes treated with IL-1β (5 ng/mL) for 48 h before lysis.
Assay [4] shares this target. As to the kind of experiment: co-IP; mouse primary chondrocytes transfected with Bclaf1-Flag or Lamtor2-Flag plasmid, without IL-1β; NP-40 lysate; protein A/G magnetic beads with the indicated antibodies, overnight at 4 °C, 4 washes; western blotting.

Results are given in words; binding and its absence hold for the method and conditions named. Binding seen in cells or lysates may run through a third protein. Some results given as binding are weak or reduced against the parent protein; the word gives no strength.

As for “B-cell lymphoma-2-associated transcription factor 1 (BCLAF1), endogenous (from UniProt Q8K019 1-919)”, the figures for the binding entry in assay [1] and in assay [2] were “no binding” and “binds”, respectively.

Regarding “Ragulator complex protein LAMTOR2 (late endosomal/lysosomal adaptor and MAPK and MTOR activator 2), endogenous (from UniProt Q9JHS3 1-125)”, the binding result is reported as “no binding” in assay [3] and “binds” in assay [4].
